{"source": "PubChem BioAssay AID1508588 | Peter MacCallum Cancer Centre, 2020", "purpose": "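Genome-wide search for knock-downs that heighten vemurafenib action in melanoma cells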 (primary screen)", "cell system": "human WM266.4 melanoma cells (BRAF V600 mutant)", "knock-down reagent": "siRNA pool against human genes, 40 nM", "timing": "96 h from transfection to read-out", "treatment": "vemurafenib 300 nM (about IC25), added 48 h after transfection, for 48 h; comparison arm got DMSO vehicle only", "measured": "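Cell gain (DAPI nuclei at end minus before drug, mean of two replicates) and medium lactate by absorbance per cell, both as ratio to non-targeting siRNA, also grouped into fold-change classes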", "scale": "cell gain with vemurafenib: higher = more cell gain than with non-targeting siRNA; lactate per cell with vemurafenib: higher = more lactate made per cell", "active means": "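a knock-down counts as enhancing when its fold-change classes with vehicle and with vemurafenib, taken together, show a stronger drug effect on cell gain or lactate per cell; exact class pairs not stated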", "calls": "active = enhances vemurafenib effect; inactive = no enhancement seen", "note": "Shown is an unselected part of about 18,000 reagents. 790 of all reagents (4.4%) were called active. 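Calls rest on a combination of fold-change classes in drug and vehicle arms, not all shown here.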 Some reagents were tested in more than one well and are listed for each. Reagent sequences are not shown."}
{"Gene": "RNF149", "cell gain with vemurafenib": 1.06, "lactate per cell with vemurafenib": 0.7, "outcome": "inactive"}
{"Gene": "RNF149", "cell gain with vemurafenib": 0.77, "lactate per cell with vemurafenib": 0.8, "outcome": "inactive"}
{"Gene": "ADD3", "cell gain with vemurafenib": 0.58, "lactate per cell with vemurafenib": 1.07, "outcome": "inactive"}
{"Gene": "USP26", "cell gain with vemurafenib": 0.66, "lactate per cell with vemurafenib": 1.19, "outcome": "inactive"}
{"Gene": "B3GNT3", "cell gain with vemurafenib": 1.16, "lactate per cell with vemurafenib": 0.8, "outcome": "inactive"}
{"Gene": "TCF23", "cell gain with vemurafenib": 0.35, "lactate per cell with vemurafenib": 1.52, "outcome": "inactive"}
{"Gene": "NDUFB1", "cell gain with vemurafenib": 0.67, "lactate per cell with vemurafenib": 0.66, "outcome": "inactive"}
{"Gene": "SORBS2", "cell gain with vemurafenib": 0.84, "lactate per cell with vemurafenib": 0.88, "outcome": "inactive"}
{"Gene": "PSAPL1", "cell gain with vemurafenib": 1.1, "lactate per cell with vemurafenib": 0.85, "outcome": "inactive"}
{"Gene": "RBBP8NL", "cell gain with vemurafenib": 0.42, "lactate per cell with vemurafenib": 1.78, "outcome": "inactive"}
{"Gene": "PEX5L", "cell gain with vemurafenib": 0.42, "lactate per cell with vemurafenib": 0.76, "outcome": "inactive"}
{"Gene": "APIP", "cell gain with vemurafenib": 0.63, "lactate per cell with vemurafenib": 0.61, "outcome": "inactive"}
{"Gene": "COL6A1", "cell gain with vemurafenib": 0.11, "lactate per cell with vemurafenib": 2.55, "outcome": "inactive"}
{"Gene": "TOMM20", "cell gain with vemurafenib": 0.36, "lactate per cell with vemurafenib": 0.5, "outcome": "inactive"}
{"Gene": "FAABTP", "cell gain with vemurafenib": 0.55, "lactate per cell with vemurafenib": 0.5, "outcome": "inactive"}
{"Gene": "ASCL4", "cell gain with vemurafenib": 0.85, "lactate per cell with vemurafenib": 0.99, "outcome": "inactive"}
{"Gene": "STRA6", "cell gain with vemurafenib": 0.35, "lactate per cell with vemurafenib": 0.52, "outcome": "inactive"}
{"Gene": "IL1RAP", "cell gain with vemurafenib": 0.87, "lactate per cell with vemurafenib": 0.94, "outcome": "inactive"}
{"Gene": "GPR160", "cell gain with vemurafenib": 0.99, "lactate per cell with vemurafenib": 0.73, "outcome": "inactive"}
{"Gene": "MBNL2", "cell gain with vemurafenib": 0.76, "lactate per cell with vemurafenib": 0.78, "outcome": "inactive"}
{"Gene": "SULT1C4", "cell gain with vemurafenib": 0.53, "lactate per cell with vemurafenib": 1.11, "outcome": "inactive"}
{"Gene": "FARSA", "cell gain with vemurafenib": 0.98, "lactate per cell with vemurafenib": 0.66, "outcome": "inactive"}
{"Gene": "KLF13", "cell gain with vemurafenib": 0.97, "lactate per cell with vemurafenib": 0.8, "outcome": "inactive"}
{"Gene": "NCAM2", "cell gain with vemurafenib": 0.71, "lactate per cell with vemurafenib": 1.12, "outcome": "inactive"}
{"Gene": "ZFP36L1", "cell gain with vemurafenib": 0.52, "lactate per cell with vemurafenib": 1.77, "outcome": "inactive"}
{"Gene": "KIFC1", "cell gain with vemurafenib": 0.21, "lactate per cell with vemurafenib": 1.05, "outcome": "inactive"}
{"Gene": "NTAQ1", "cell gain with vemurafenib": 0.83, "lactate per cell with vemurafenib": 0.49, "outcome": "active"}
{"Gene": "EVC2", "cell gain with vemurafenib": -0.04, "lactate per cell with vemurafenib": 1.82, "outcome": "inactive"}
{"Gene": "MYMK", "cell gain with vemurafenib": 0.73, "lactate per cell with vemurafenib": 0.84, "outcome": "inactive"}
{"Gene": "EDEM3", "cell gain with vemurafenib": 0.68, "lactate per cell with vemurafenib": 0.5, "outcome": "inactive"}
{"Gene": "ZNF462", "cell gain with vemurafenib": 0.2, "lactate per cell with vemurafenib": 3, "outcome": "inactive"}
{"Gene": "PAX9", "cell gain with vemurafenib": 0.06, "lactate per cell with vemurafenib": 1.35, "outcome": "inactive"}
{"Gene": "CSRP1", "cell gain with vemurafenib": 1.02, "lactate per cell with vemurafenib": 1.03, "outcome": "inactive"}
{"Gene": "STOX2", "cell gain with vemurafenib": 0.43, "lactate per cell with vemurafenib": 1.77, "outcome": "inactive"}
{"Gene": "PLEKHA8", "cell gain with vemurafenib": 0.26, "lactate per cell with vemurafenib": 1.24, "outcome": "inactive"}
{"Gene": "MRPL37", "cell gain with vemurafenib": 0.49, "lactate per cell with vemurafenib": 1.66, "outcome": "inactive"}
{"Gene": "HPR", "cell gain with vemurafenib": 0.52, "lactate per cell with vemurafenib": 0.92, "outcome": "inactive"}
{"Gene": "BLTP2", "cell gain with vemurafenib": 0.45, "lactate per cell with vemurafenib": 0.74, "outcome": "inactive"}
{"Gene": "ELFN2", "cell gain with vemurafenib": 0.22, "lactate per cell with vemurafenib": 1.72, "outcome": "inactive"}
{"Gene": "ASPNAT", "cell gain with vemurafenib": 0.18, "lactate per cell with vemurafenib": 0.78, "outcome": "inactive"}
{"Gene": "ERRFI1", "cell gain with vemurafenib": 0.44, "lactate per cell with vemurafenib": 1.22, "outcome": "inactive"}
{"Gene": "RASGRP2", "cell gain with vemurafenib": 0.46, "lactate per cell with vemurafenib": 0.12, "outcome": "active"}
{"Gene": "COA6", "cell gain with vemurafenib": 0.43, "lactate per cell with vemurafenib": 1.72, "outcome": "inactive"}
{"Gene": "IL18RAP", "cell gain with vemurafenib": 0.66, "lactate per cell with vemurafenib": 0.94, "outcome": "inactive"}
{"Gene": "LIMS1", "cell gain with vemurafenib": 0.51, "lactate per cell with vemurafenib": 1.05, "outcome": "inactive"}
{"Gene": "CLEC5A", "cell gain with vemurafenib": 0.57, "lactate per cell with vemurafenib": 1.23, "outcome": "inactive"}
{"Gene": "MRPL12", "cell gain with vemurafenib": 0.79, "lactate per cell with vemurafenib": 1.04, "outcome": "inactive"}
{"Gene": "TMX2", "cell gain with vemurafenib": 0.28, "lactate per cell with vemurafenib": 1.7, "outcome": "inactive"}
{"Gene": "FIGNL1", "cell gain with vemurafenib": 0.81, "lactate per cell with vemurafenib": 0.78, "outcome": "inactive"}
{"Gene": "UQCRH", "cell gain with vemurafenib": 0.72, "lactate per cell with vemurafenib": 0.94, "outcome": "inactive"}
{"Gene": "ISG20L2", "cell gain with vemurafenib": 0.76, "lactate per cell with vemurafenib": 0.77, "outcome": "inactive"}
{"Gene": "GPR61", "cell gain with vemurafenib": 0.73, "lactate per cell with vemurafenib": 1.03, "outcome": "inactive"}

Sorted by “lactate per cell with vemurafenib” (highest first): 6 of the entries above
{"Gene": "TCF23", "cell gain with vemurafenib": 0.35, "lactate per cell with vemurafenib": 1.52, "outcome": "inactive"}
{"Gene": "USP26", "cell gain with vemurafenib": 0.66, "lactate per cell with vemurafenib": 1.19, "outcome": "inactive"}
{"Gene": "SORBS2", "cell gain with vemurafenib": 0.84, "lactate per cell with vemurafenib": 0.88, "outcome": "inactive"}
{"Gene": "PSAPL1", "cell gain with vemurafenib": 1.1, "lactate per cell with vemurafenib": 0.85, "outcome": "inactive"}
{"Gene": "B3GNT3", "cell gain with vemurafenib": 1.16, "lactate per cell with vemurafenib": 0.8, "outcome": "inactive"}
{"Gene": "NDUFB1", "cell gain with vemurafenib": 0.67, "lactate per cell with vemurafenib": 0.66, "outcome": "inactive"}
